PubChem BioAssay AID1259331 | Drosophila RNAi Screening Center – 2017

Test: 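Fly transmembrane-protein genes that affect zinc toxicity in cultured cells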 (primary screen)
Cell system: Drosophila S2R+ cells
Reagents: long dsRNA against Drosophila genes
Time to read-out: 5 days (4 days knock-down, then 1 day zinc)
Conditions: zinc chloride at 15 mM final level for 1 day
Measured: 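Total cellular ATP measured by luciferase luminescence as a viability proxy, turned into Z scores from three plate copies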
Scale: mean Z score: higher = more ATP than other wells, better survival under zinc; ATP luminescence: higher = more ATP, more viable cells
Hit rule: 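Hit when the absolute Z score is greater than 1.5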
Calls: active = hit, ATP up or down; inactive = not a hit
Shown is a random part of about 3,100 reagents tested. Over the whole deposit, 126 (4.1%) were called active. 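Calls are per reagent; zinc was so toxic that few knock-downs lowered ATP further, so most hits raise ATP.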 The raw values are shown without normalisation. Entries without a mark were called inactive. Reagents against one gene are numbered here. A plus sign joins genes that one reagent is predicted to hit. Reagent sequences are not shown. Not stated in the record: the amount of reagent.

The first 11 records as a preview:
| Target gene | reagent | mean Z score | ATP luminescence, replicate 1 | ATP luminescence, replicate 2 |
| --- | --- | --- | --- | --- |
| Tsp42Eg | 1 | 0.0472 | 33387 | 31159 |
| Nup133 | 1 | 3.26 (active) | 86788 | 78005 |
| robo2 | 1 | -0.389 | 42011 | 39988 |
| robo2 | 2 | -0.479 | 96618 | 64848 |
| CG13160 | 1 | 0.132 | 83391 | 76822 |
| CG31272 | 1 | -0.616 | 38736 | 50343 |
| CG31272 | 2 | -0.365 | 42165 | 43914 |
| CG5853 | 1 | 0.00851 | 43039 | 40245 |
| CG5853 | 2 | -0.119 | 52007 | 57237 |
| polyph | 1 | 0.0496 | 77546 | 69275 |
| Sfxn2 | 1 | -0.387 | 71067 | 55162 |

Main list, repeating the preview:
| Target gene | reagent | mean Z score | ATP luminescence, replicate 1 | ATP luminescence, replicate 2 |
| --- | --- | --- | --- | --- |
| Tsp42Eg | 1 | 0.0472 | 33387 | 31159 |
| Nup133 | 1 | 3.26 (active) | 86788 | 78005 |
| robo2 | 1 | -0.389 | 42011 | 39988 |
| robo2 | 2 | -0.479 | 96618 | 64848 |
| CG13160 | 1 | 0.132 | 83391 | 76822 |
| CG31272 | 1 | -0.616 | 38736 | 50343 |
| CG31272 | 2 | -0.365 | 42165 | 43914 |
| CG5853 | 1 | 0.00851 | 43039 | 40245 |
| CG5853 | 2 | -0.119 | 52007 | 57237 |
| polyph | 1 | 0.0496 | 77546 | 69275 |
| Sfxn2 | 1 | -0.387 | 71067 | 55162 |
| Sfxn2 | 2 | 0.045 | 60392 | 56791 |
| PXo | 1 | -0.306 | 28210 | 30782 |
| CG14204 | 1 | 2.34 (active) | 70424 | 74181 |
| CG14204 | 2 | 0.571 | 53053 | 53155 |
| PIG-U | 1 | -0.249 | 49415 | 56208 |
| PIG-U | 2 | -0.305 | 58128 | 55217 |
| CG12730 | 1 | -0.814 | 53208 | 51869 |
| CG12730 | 2 | 0.151 | 58197 | 49366 |
| Zip99C | 1 | -0.432 | 38668 | 42955 |
| CG14070 | 1 | -0.764 | 39264 | 33233 |
| CG14194 | 1 | 4.51 (active) | 99260 | 93976 |
| CG46441 | 1 | -0.586 | 37482 | 39976 |
| CG46441 | 2 | -0.0469 | 58557 | 62821 |
| Nup154 | 1 | 2.01 (active) | 94954 | 77731 |
| cdm | 1 | -0.297 | 42366 | 43468 |
| SsRbeta | 1 | -0.0137 | 30573 | 31433 |
| Msp300 | 1 | -0.0986 | 39079 | 43897 |
| Msp300 | 2 | -0.0953 | 44497 | 40911 |
| Msp300 | 3 | -0.298 | 50292 | 53841 |
| Msp300 | 4 | 0.347 | 53807 | 35805 |
| CG5850 | 1 | 0.209 | 59706 | 58608 |
| CG5850 | 2 | -0.31 | 44634 | 46228 |
| Dic4 | 1 | -0.0847 | 71968 | 58145 |
| Gr39b | 1 | 0.0103 | 64096 | 58040 |
| Gr39b | 2 | -0.11 | 62405 | 57374 |
| Or85a | 1 | -0.237 | 35925 | 53687 |
| Tapdelta | 1 | -0.359 | 30027 | 27970 |
| Tapdelta | 2 | 4.39 (active) | 1.11e5 | 1.08e5 |
| CG1998 | 1 | 0.154 | 64268 | 73035 |
| CG1998 | 2 | -0.119 | 59517 | 55916 |
| rost | 1 | 0.0382 | 56791 | 56722 |
| Vmat + CG13330 | 1 | 0.562 | 34107 | 39576 |
| Vmat + CG13330 | 2 | -0.155 | 59253 | 58763 |
| Remo | 1 | 0.528 | 73666 | 75970 |
| PGRP-LE | 1 | -0.123 | 42973 | 45320 |
| ine | 1 | -0.166 | 51304 | 56602 |
| ine | 2 | -0.187 | 55719 | 61352 |
| Alg14 | 1 | 0.353 | 70081 | 73752 |
| CG42514 + CG43373 | 1 | 0.367 | 60049 | 64662 |
| COX4L | 1 | 0.0466 | 52418 | 41656 |
| COX4L | 2 | 0.0168 | 62690 | 58197 |
| CG8860 | 1 | -0.108 | 83940 | 67114 |
| CG8860 | 2 | -0.141 | 54099 | 53293 |
| shakB | 1 | 0.119 | 42002 | 43318 |
| shakB | 2 | -0.46 | 41462 | 42245 |
| shakB | 3 | -0.0465 | 56325 | 54167 |
| htl | 1 | -0.458 | 38959 | 41616 |
| htl | 2 | 0.215 | 49726 | 52264 |
| SecCl | 1 | -0.0706 | 78499 | 62163 |
| SecCl | 2 | -1.04 | 32807 | 47025 |
| CG2076 | 1 | -0.379 | 58591 | 60967 |
| CG2076 | 2 | 0.384 | 66274 | 62090 |
| CG8195 | 1 | -0.479 | 23942 | 27662 |
| CG31998 | 1 | -0.319 | 41633 | 43266 |
| CG31998 | 2 | 1.01 | 79858 | 85672 |
| Or59c | 1 | 0.00565 | 50069 | 42175 |
| Or59c | 2 | -0.187 | 51338 | 55968 |
| CG9254 | 1 | 0.107 | 52161 | 40738 |
| Gr59d | 1 | 0.352 | 49383 | 53121 |
| Gr59d | 2 | -0.196 | 57035 | 61935 |
| Tmem63 | 1 | 0.0228 | 73632 | 72448 |
| Tmem63 | 2 | 0.349 | 66320 | 63719 |
| CG42322 | 1 | -0.177 | 44531 | 43828 |
| CG42322 | 2 | -0.225 | 35187 | 54541 |
| chk | 1 | -0.321 | 27833 | 31073 |
| Inx2 | 1 | -0.463 | 40639 | 41599 |
| Inx2 | 2 | -0.121 | 49812 | 55779 |
| CG12914 | 1 | -0.092 | 77354 | 66754 |
| CG12209 | 1 | 0.218 | 88418 | 76871 |
| CG14439 | 1 | -0.721 | 53970 | 54236 |
| CG14439 | 2 | -0.437 | 58557 | 52671 |
| Tsp66E | 1 | 0.809 | 89069 | 72328 |
| Proc-R | 1 | -0.598 | 56945 | 55303 |
| Proc-R | 2 | -0.619 | 50515 | 51972 |
| Cpes | 1 | -0.3 | 57991 | 51989 |
| Rh6 | 1 | 0.674 | 41794 | 66548 |
| Rh6 | 2 | 0.669 | 72500 | 65983 |
